This is an account of results in article PMC8301362.

Assay [1] has as its target T1, Myocilin (MYOC) (mouse (endogenous in C2C12)) (UniProt O70624).
T1 sequence: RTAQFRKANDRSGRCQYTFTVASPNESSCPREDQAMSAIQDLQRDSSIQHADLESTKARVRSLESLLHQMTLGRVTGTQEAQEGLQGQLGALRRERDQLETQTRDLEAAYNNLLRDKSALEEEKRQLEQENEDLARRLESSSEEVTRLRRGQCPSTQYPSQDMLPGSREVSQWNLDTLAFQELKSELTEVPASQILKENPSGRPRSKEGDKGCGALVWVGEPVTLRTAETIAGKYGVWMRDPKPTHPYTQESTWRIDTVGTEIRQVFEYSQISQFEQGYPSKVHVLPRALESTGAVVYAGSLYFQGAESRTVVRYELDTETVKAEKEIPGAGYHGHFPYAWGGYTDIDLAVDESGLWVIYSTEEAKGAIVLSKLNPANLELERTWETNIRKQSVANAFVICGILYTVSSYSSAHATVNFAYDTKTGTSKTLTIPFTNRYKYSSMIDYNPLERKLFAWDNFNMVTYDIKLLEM
Kind of assay: co-IP; lysate (RIPA) of C2C12 cells on day 7 of differentiation; immunoprecipitation with anti-MYOC or anti-CAV1 antibody, protein A + G agarose beads, Western blotting for the other protein; endogenous proteins. In general terms: In western blotting, separated proteins are transferred to a membrane and probed.

Assay [2] addresses T2, Caveolin-1 (CAV1) (mouse (endogenous in C2C12)) (UniProt P49817).
T2 sequence: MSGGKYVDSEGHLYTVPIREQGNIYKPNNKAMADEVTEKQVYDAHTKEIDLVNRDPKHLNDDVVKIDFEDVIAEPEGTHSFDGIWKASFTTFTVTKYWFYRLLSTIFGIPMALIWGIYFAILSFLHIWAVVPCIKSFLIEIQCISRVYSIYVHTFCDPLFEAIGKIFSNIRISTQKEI
The description is as above.

These are yes or no findings as the source states them, for the method shown. Binding seen in cells or lysates may run through a third protein. Some results given as binding are weak or reduced against the parent protein; the word gives no strength.

B1: Caveolin-1 (CAV1) (protein, UniProt P49817 1-178)
chain: T2 sequence
Take B1: the binding entry in assay [1] was “binds”.

B2: Myocilin (MYOC) (protein, UniProt O70624 19-490)
chain: T1 sequence
Consider B2, for which, in assay [2], the binding result is recorded as “binds”.
